T/C and survivor count data for twelve molecules are collected here from PubChem BioAssay AID208 (DTP/NCI, 2004).

This assay has as its system HT29 intrarenal xenograft, nude mice, tumor weight change. As to the kind of experiment: NCI In Vivo Anticancer Drug Screen. Data for tumor model HT29;CX-1 Human Adenocarcinoma (MER+) (intrarenal inoculation) in NU/NU BALB/C (nude) mice. As to conditions: T/C endpoint: mean tumor weight change, higher T/C = larger tumour. As for the experimental part:
The antitumor activity of compounds was measured in mice bearing transplantable tumors. Survival or tumor size were measured and the results are expressed as the measurement made in the treated group (T) divided by the measurement made in the vehicle treated control group (C). The tumor model used in this assay is HT29;CX-1 Human Adenocarcinoma (MER+) (intrarenal inoculation) in NU/NU BALB/C (nude) mice

The list shows only some results of the screen, not a fair sample: it is rich in T/C values a quarter to a half above the control, in often repeated tests (any T/C) and in doses without a T/C. Further doses and runs are listed elsewhere. T/C is the treated group as % of the vehicle group. Schedule codes are those of the source, taken here to give the interval after Q, in days (D) or hours (H), and the number of doses after X. Some T/C values are followed by the survivors on the day toxicity was checked, most often the fifth; without a count, all were alive then. Some doses were run more than once; their values stand side by side, smallest first. Some doses have a count of surviving animals in place of a T/C: the source holds a T/C of zero for them, seemingly a mark for toxic or unscored doses. Survivors were counted at the toxicity check, usually on the fifth day, unless a day is given; later deaths do not show.

With `Cc1ccoc1`, the T/C (dose: 400.0 mg/kg/injection, schedule: Q01DX010 (ip), vehicle: saline with Tween-80, evaluated on day 11) is 134 % of control [5 of 6 alive on day 11].

Consider `O=C(O)CCCc1ccc(N(CCCl)CCCl)cc1`, for which the T/C (dose: 12.0 mg/kg/injection, schedule: Q04DX004 (ip), vehicle: Klucel (hydroxypropylcellulose) (HPC), evaluated on day 15) is given as 38, 43, 56, 85 % of control; the T/C (dose: 18.0 mg/kg/injection, schedule: Q04DX004 (ip), vehicle: Klucel (hydroxypropylcellulose) (HPC), evaluated on day 15) is 63, 69, 127, 204 % of control [4 of 6 alive on day 15]; the T/C (dose: 27.0 mg/kg/injection, schedule: Q04DX004 (ip), vehicle: Klucel (hydroxypropylcellulose) (HPC), evaluated on day 15) was 21 [4 of 6 alive on day 15], 29, 32, 125 % of control. Further, the survivor count (dose: 40.0 mg/kg/injection, schedule: Q04DX004 (ip), vehicle: Klucel (hydroxypropylcellulose) (HPC)) is on record as 3 of 6 on day 15.

On to `CCC1OCC(C(Cl)CCl)O1` (stereo unspecified), for which the survivor count (dose: 267.0 mg/kg/injection, schedule: Q01DX014 (sc), vehicle: other) is listed as 1 of 6 on day 15; the survivor count (dose: 400.0 mg/kg/injection, schedule: Q01DX014 (sc), vehicle: other) was 0 of 6 on day 15 and 3 of 6 on day 15; the survivor count (dose: 600.0 mg/kg/injection, schedule: Q01DX014 (sc), vehicle: Klucel (hydroxypropylcellulose) (HPC)) is reported as 2 of 5 on day 15; the survivor count (dose: 600.0 mg/kg/injection, schedule: Q01DX014 (sc), vehicle: other) is recorded as 0 of 6 on day 15; the survivor count (dose: 900.0 mg/kg/injection, schedule: Q01DX014 (sc), vehicle: Klucel (hydroxypropylcellulose) (HPC)) was 0 of 5 on day 15 and 0 of 6 on day 15; the survivor count (dose: 900.0 mg/kg/injection, schedule: Q01DX014 (sc), vehicle: other) was 0 of 5 on day 15 and 0 of 6 on day 15.

As for `COc1cccc2c1C(=O)c1c(O)c3c(c(O)c1C2=O)C[C@@](O)(C(=O)CO)C[C@@H]3OC1CC(N2CCOCC2C#N)C(O)C(C)O1` (stereo partly specified), the survivor count runs as follows: (dose: 120.0 micrograms/kg/injection, schedule: Q04DX004 (ip), vehicle: saline) 0 of 6 on day 15; (dose: 240.0 micrograms/kg/injection, schedule: Q04DX004 (ip), vehicle: saline) 0 of 6 on day 15.

Take `Oc1ccc(CCl)c2cccnc12`: where the note is “dose: 600.0 mg/kg/injection, schedule: Q04DX004 (sc), vehicle: saline”, the survivor count was 2 of 6 on day 15.

With `CC[C@@]1(O)C(=O)OCc2c1cc1n(c2=O)Cc2cc3ccccc3nc2-1`, the T/C (dose: 1.5 mg/kg/injection, schedule: Q04DX004 (sc), vehicle: saline with Tween-80, evaluated on day 15) was 148 % of control. Also, the survivor count runs as follows: (dose: 32.0 mg/kg/injection, schedule: Q04DX004 (sc), vehicle: saline with Tween-80) 0 of 6 on day 15; (dose: 48.0 mg/kg/injection, schedule: Q04DX004 (sc), vehicle: saline with Tween-80) 0 of 6 on day 15; (dose: 64.0 mg/kg/injection, schedule: Q04DX004 (sc), vehicle: saline with Tween-80) 3 of 6 on day 15.

Turning to `[Cl][Hg][Cl]`, the survivor count (dose: 10.0 mg/kg/injection, schedule: Q04DX004 (ip), vehicle: saline) is recorded as 1 of 6 on day 15 and the survivor count (dose: 20.0 mg/kg/injection, schedule: Q04DX004 (ip), vehicle: saline) is listed as 0 of 6 on day 15.

Turning to `C[CH2][Sn]([CH2]C)([O]S(C)(=O)=O)[O]S(C)(=O)=O`, the survivor count runs as follows: (dose: 25.0 mg/kg/injection, schedule: Q04DX004 (sc), vehicle: saline with Tween-80) 2 of 6 on day 15; (dose: 50.0 mg/kg/injection, schedule: Q04DX004 (sc), vehicle: saline with Tween-80) 0 of 6 on day 15.

For the molecule `COc1cccc2c1C(=O)c1c(O)c3c(c(O)c1C2=O)C[C@@](O)(/C(C)=N\O)C[C@@H]3OC1CC(N)C(O)C(C)O1` (stereo partly specified), the survivor count (dose: 100.0 mg/kg/injection, schedule: Q04DX004 (sc), vehicle: saline) is 0 of 6 on day 15.

As for `Cc1ccc(S(=O)(=O)N/N=C/C(Br)=C(/Br)C(=O)O)cc1`, the T/C (dose: 0.62 mg/kg/injection, schedule: Q04DX004 (sc), vehicle: saline, evaluated on day 15) was 138 % of control.

For `CCNC=O`, the survivor count (dose: 1200.0 mg/kg/injection, schedule: Q01DX010 (ip), vehicle: suspension in saline) is on record as 1 of 6 on day 11.

As for `CCCCNc1ccc2nnc(C)n2n1`, the survivor count by setting is: (dose: 300.0 mg/kg/injection, schedule: Q04DX004 (ip), vehicle: DMSO) 3 of 6 on day 15; (dose: 300.0 mg/kg/injection, schedule: Q04DX004 (ip), vehicle: sodium bicarbonate) 3 of 6 on day 15; (dose: 600.0 mg/kg/injection, schedule: Q04DX004 (ip), vehicle: DMSO) 0 of 6 on day 15; (dose: 600.0 mg/kg/injection, schedule: Q04DX004 (ip), vehicle: sodium bicarbonate) 1 of 6 on day 15; (dose: 1200.0 mg/kg/injection, schedule: Q04DX004 (ip), vehicle: DMSO) 0 of 6 on day 15; (dose: 1200.0 mg/kg/injection, schedule: Q04DX004 (ip), vehicle: sodium bicarbonate) 0 of 6 on day 15.
